Source: PubChem BioAssay AID1259308 (NCATS, 2017)

Test: 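Genes whose loss raises luciferase production in HEK293 cells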 (primary screen)
Cell system: human HEK293 embryonic kidney cells stably expressing firefly luciferase (HEK-CMV-Luc2-Hygro)
Reagent: single siRNA against human genes, 0.8 pmol siRNA per well
Duration: 72 h
Measured: 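Reporter luminescence and viable-cell signal on separate replicate plates, given as percent of non-targeting control and median/MAD z-scores, plus per-cell luciferase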
Reading the numbers: total luciferase, z-score and total luciferase, % of control: higher = more reporter protein produced; luciferase per cell, z-score: higher = more reporter output per viable cell; viable cells, % of control: higher = more viable cells
Call rule: 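An siRNA counts as active if its total luciferase robust z-score exceeds 3; genes with two or more such siRNAs out of three were retested with fresh siRNAs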
Calls: active = raised luciferase; inactive = no rise
The whole screen tested about 59,000 reagents; this is an unselected part. About 1,510 of them (2.6%) count as active. 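Calls use total luciferase alone and ignore viability, so some active siRNAs may act by altering cell number.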 Reagents against one gene are numbered here.

target | reagent | total luciferase, z-score | total luciferase, % of control | luciferase per cell, z-score | viable cells, % of control | call
GULP1 | 1 | -0.375 | 74.4 | -0.176 | 87.1 | inactive
GULP1 | 2 | 1.77 | 117 | 0.913 | 103 | inactive
GULP1 | 3 | -0.285 | 76.2 | -0.383 | 94.2 | inactive
GPRASP3 | 1 | -1.29 | 56.3 | 0.751 | 51.6 | inactive
GPRASP3 | 2 | 0.918 | 100 | 0.566 | 96.4 | inactive
GPRASP3 | 3 | 0.341 | 88.7 | -0.489 | 113 | inactive
ELFN2 | 1 | -0.575 | 70.5 | -0.311 | 85.4 | inactive
ELFN2 | 2 | 1.26 | 107 | 1.01 | 91.7 | inactive
ELFN2 | 3 | 0.119 | 84.2 | -0.408 | 105 | inactive
CYRIA | 1 | -1.12 | 59.5 | -1.21 | 91.4 | inactive
CYRIA | 2 | 0.968 | 101 | 0.997 | 86.9 | inactive
CYRIA | 3 | 0.443 | 90.7 | 0.0905 | 99 | inactive
CD99 | 1 | 0.173 | 85.3 | 0.0581 | 93.9 | inactive
CD99 | 2 | -0.843 | 65.1 | -0.444 | 81.8 | inactive
CD99 | 3 | 0.441 | 90.7 | 0.773 | 82.7 | inactive
RAB41 | 1 | 0.311 | 88.1 | 0.801 | 79.7 | inactive
RAB41 | 2 | 0.249 | 86.8 | 0.00607 | 96.9 | inactive
RAB41 | 3 | -0.632 | 69.3 | -0.673 | 92.5 | inactive
ARMC8 | 1 | 1.48 | 111 | 1.2 | 90.8 | inactive
ARMC8 | 2 | -2.55 | 31.2 | -3.04 | 77.6 | inactive
ARMC8 | 3 | 1.33 | 108 | 0.53 | 105 | inactive
RAP1GDS1 | 1 | -0.0859 | 80.2 | -0.398 | 99.5 | inactive
RAP1GDS1 | 2 | 0.3 | 87.9 | 1.41 | 67.7 | inactive
RAP1GDS1 | 3 | 0.614 | 94.1 | -0.482 | 119 | inactive
NADSYN1 | 1 | 0.396 | 89.8 | -0.352 | 110 | inactive
NADSYN1 | 2 | -0.532 | 71.3 | -0.615 | 93.7 | inactive
NADSYN1 | 3 | 0.0157 | 82.2 | -0.0718 | 93.6 | inactive
OXSM | 1 | -0.481 | 72.3 | -0.983 | 105 | inactive
OXSM | 2 | 1.18 | 105 | 1.21 | 85.7 | inactive
OXSM | 3 | -1.01 | 61.9 | -0.462 | 78.1 | inactive
SAFB | 1 | 0.0159 | 82.2 | -0.284 | 99 | inactive
SAFB | 2 | -0.865 | 64.7 | -1.62 | 111 | inactive
SAFB | 3 | 0.44 | 90.6 | 0.134 | 97.8 | inactive
SDCBP | 1 | 1.24 | 107 | 0.659 | 100 | inactive
SDCBP | 2 | -1.19 | 58.3 | -0.469 | 73.7 | inactive
SDCBP | 3 | -0.18 | 78.3 | -0.227 | 92.9 | inactive
FXYD2 | 1 | 0.943 | 101 | 0.377 | 102 | inactive
FXYD2 | 2 | 0.237 | 86.6 | -0.377 | 107 | inactive
FXYD2 | 3 | 2.13 | 124 | 1.33 | 97.7 | inactive
WDR82P1 | 1 | -0.267 | 76.6 | 0.66 | 71.9 | inactive
WDR82P1 | 2 | -0.239 | 77.1 | 1.22 | 62.6 | inactive
WDR82P1 | 3 | -0.713 | 67.7 | -0.104 | 77.8 | inactive
LIN9 | 1 | 0.0906 | 83.7 | 0.446 | 83.1 | inactive
LIN9 | 2 | 0.97 | 101 | 0.505 | 99 | inactive
LIN9 | 3 | -0.478 | 72.4 | -1.01 | 105 | inactive
AK1 | 1 | 1.35 | 109 | 1.56 | 80.5 | inactive
AK1 | 2 | -0.138 | 79.1 | -0.504 | 101 | inactive
AK1 | 3 | -0.0253 | 81.4 | -0.682 | 109 | inactive
OR2A4 | 1 | -0.557 | 70.8 | 1.07 | 59.7 | inactive
OR2A4 | 2 | 0.487 | 91.6 | 0.409 | 91.9 | inactive
OR2A4 | 3 | -0.0555 | 80.8 | -0.805 | 112 | inactive
ZMAT5 | 1 | -0.931 | 63.4 | -0.509 | 81 | inactive
ZMAT5 | 2 | -1.39 | 54.1 | -0.395 | 67.1 | inactive
ZMAT5 | 3 | -0.902 | 64 | -1.64 | 110 | inactive
WSB1 | 1 | -0.212 | 77.7 | 0.518 | 75.7 | inactive
WSB1 | 2 | -0.844 | 65.1 | -0.846 | 90.9 | inactive
WSB1 | 3 | -1.12 | 59.5 | -0.342 | 72.8 | inactive

Laid out differently: entries from further up.
{"target": "WDR82P1", "reagent": 1, "total luciferase, z-score": -0.267, "total luciferase, % of control": 76.6, "luciferase per cell, z-score": 0.66, "viable cells, % of control": 71.9, "call": "inactive"}
{"target": "WDR82P1", "reagent": 2, "total luciferase, z-score": -0.239, "total luciferase, % of control": 77.1, "luciferase per cell, z-score": 1.22, "viable cells, % of control": 62.6, "call": "inactive"}
{"target": "WDR82P1", "reagent": 3, "total luciferase, z-score": -0.713, "total luciferase, % of control": 67.7, "luciferase per cell, z-score": -0.104, "viable cells, % of control": 77.8, "call": "inactive"}
{"target": "LIN9", "reagent": 1, "total luciferase, z-score": 0.0906, "total luciferase, % of control": 83.7, "luciferase per cell, z-score": 0.446, "viable cells, % of control": 83.1, "call": "inactive"}
{"target": "LIN9", "reagent": 2, "total luciferase, z-score": 0.97, "total luciferase, % of control": 101, "luciferase per cell, z-score": 0.505, "viable cells, % of control": 99, "call": "inactive"}
{"target": "LIN9", "reagent": 3, "total luciferase, z-score": -0.478, "total luciferase, % of control": 72.4, "luciferase per cell, z-score": -1.01, "viable cells, % of control": 105, "call": "inactive"}
{"target": "AK1", "reagent": 1, "total luciferase, z-score": 1.35, "total luciferase, % of control": 109, "luciferase per cell, z-score": 1.56, "viable cells, % of control": 80.5, "call": "inactive"}
